Source: PubChem BioAssay AID493014 (National Center for Advancing Translational Sciences (NCATS), 2011)
The list shows a part of the results. Shown are side measurements of this screen, not its main read-out; they come without a call. The list favours compounds with an active or inconclusive main result. The note in brackets gives the kind of curve behind each potency; many fits are weak.

Assay: qHTS Assay to Find Inhibitors of Chronic Active B-Cell Receptor Signaling
Conditions: ABC-DLBCL IkBa-CBG/CBR reporter, luminescence ratio (green luciferase fused to IkBa over red control in TMD8 lymphoma cells), 4 h
Method in brief: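 Concentration-response series (up to 46 uM) were applied to TMD8 dual-reporter cells for 4 h at 37C with doxycycline. Green/red ratio, after filter-overlap correction, defined %Activity; red signal alone was normalised to basal cells and zero luminescence.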

[1] = measured here: CBR red luminescence, cell number
[2] = measured here: IkBa-CBG green luminescence

SMILES | AC50 [1] | AC50 [2]
O=C1N/C(=N/N=C/c2ccccc2O)SC1Cc1ccc(F)cc1 (stereo not drawn) | 4.47 µM [falling, partial curve, poor fit] | 2.82 µM [falling, full curve]
COC(=O)C1=NN(C(=O)c2cccc(Br)c2)C(O)(c2ccc(Cl)cc2)C1 (stereo not drawn) | 8.91 µM [falling, partial curve] | 
COCCn1c(=S)[nH]c2cc(C(=O)N3CCc4ccccc4C3)ccc2c1=O | 3.55 µM [falling, partial curve, poor fit] | 
O=C(NC(=S)Nc1ccc(S(=O)(=O)Nc2nccs2)cc1)c1ccccc1 | 11.6 µM [falling, partial curve] | 
CCCC(C(=O)NCc1ccco1)N(C(=O)CNS(=O)(=O)c1ccccc1)c1ccccc1OC (stereo not drawn) | 2.91 µM [falling, full curve, poor fit] | 
CN(C)CCN(C(=O)/C=C/c1cccs1)c1nc2ccc(F)cc2s1 | 8.2 µM [falling, partial curve] | 
CCOc1cc(C)c(Cl)cc1S(=O)(=O)NCc1ccc2c(c1)OCO2 | 35.5 µM [falling, single point] | 
Cc1cc2nnc(SCC(=O)N3CCCCCC3)n2c(N)n1 | 5.62 µM [falling, full curve, poor fit] | 
Cc1cc(C)c2ccc(N)nc2c1O | 14.6 µM [rising, partial curve, poor fit] | 
COC(=O)CNC(=O)c1cc(-c2ccncc2)nc2c(C)c(Cl)ccc12 | 12.6 µM [falling, partial curve, poor fit] | 
CCC(C)c1ccc(NC(=S)NCCn2cc(Br)cn2)cc1 (stereo not drawn) | 12.6 µM [rising, partial curve, poor fit] | 
CCc1nnc(NC(=O)c2ccc3ncsc3c2)s1 | 15.8 µM [falling, single point] | 
Cc1cc2cc(CN(Cc3ccc4c(c3)OCO4)C(=O)c3ccco3)c(=O)[nH]c2cc1C | 12.6 µM [falling, single point] | 
CCCN(CCC)c1nc(NC2CCN(C(=O)OCC)CC2)nc(OC)n1 | 35.5 µM [falling, single point] | 
Cc1ccc(CN2CCN(Cc3cn(C(C)C)c4ccccc34)CC2CCO)o1 (stereo not drawn) | 6.31 µM [falling, partial curve, poor fit] | 
COc1ccccc1C(=O)Nc1ccc2nc3n(c(=O)c2c1)CCCC3 | 11.2 µM [falling, partial curve, poor fit] | 
O=C1C2C3C=CC(O3)C2C(=O)N1CC(O)c1ccccc1 (stereo not drawn) | 0.103 µM [rising, full curve, poor fit] | 
CC1=NN(Cc2cc(C(C)(C)C)c(O)c(C(C)(C)C)c2)C(=O)C1 | 28.2 µM [falling, single point] | 
Cc1[nH]n(-c2ccccc2)c(=O)c1C=NC1CCCCCC1 | 22.4 µM [falling, single point] | 
CCc1cc(=O)n2c([nH]c3ccccc32)c1C#N | 0.92 µM [falling, full curve] | 

SMILES | AC50 [1] | AC50 [2]
COc1cc(N=c2oc3c(C)ncc(CO)c3cc2C(N)=O)cc(OC)c1OC | 3.55 µM [falling, full curve] | 
COC(=O)c1ccc(Cl)c(NC(=O)CSc2ncn[nH]2)c1 | 23.1 µM [falling, single point] | 
Clc1ccccc1-c1nnc2sc(-c3ccccn3)nn12 | 0.00461 µM [rising, full curve, poor fit] | 
O=C(NCc1cccs1)C(=O)NCC1OCCCN1S(=O)(=O)c1cccs1 (stereo not drawn) | 35.5 µM [rising, single point] | 
CCc1ccc(S(=O)(=O)ON2C(=O)c3ccccc3C2=O)cc1 | 11.2 µM [falling, partial curve] | 
C=C(C)C(=O)Nc1ccc(OC(F)(F)C(F)F)c(NC(=O)C(=C)C)c1 | 0.112 µM [falling, full curve, poor fit] | 
C/C(=N\NC(=O)CO/N=C(\C)c1cccs1)c1ccc(N)cc1 | 35.5 µM [falling, single point] | 
C=CCNC(=O)c1onc(CSc2cc(C)cc(C)c2)c1C(=O)NCC=C | 35.5 µM [falling, single point] | 
Cc1csc(SCC(=O)Nc2ccc3c(c2)OCCO3)n1 | 20 µM [falling, partial curve, poor fit] | 
NNc1nc2c(Cl)ccc(Cl)c2s1 | 5.17 µM [falling, partial curve] | 23.1 µM [rising, partial curve, poor fit]
Cc1cc(C(=O)NN)c2cc(Br)ccc2n1 | 10.3 µM [rising, partial curve] | 7.31 µM [falling, partial curve]
Cc1ccc(S(=O)(=O)N2CCN(Cc3cc(=O)n4ccccc4n3)CC2)c(C)c1 | 3.66 µM [rising, partial curve, poor fit] | 
O=C(CSc1nnc(-c2ccccc2Br)o1)Nc1cccc2ccccc12 | 0.231 µM [falling, full curve] | 
CCC/C(=N/NC(=O)c1ccc2c(c1)OCO2)c1cccs1 | 18.4 µM [falling, partial curve] | 
CC(C)(C)OC(=O)N1CCN(c2ccc(CNC(=O)c3ccc(Cl)cc3)cc2)CC1 | 20 µM [falling, partial curve, poor fit] | 
CC(C)NC(=O)C(=O)NNC(=O)CCc1ccccc1 | 35.5 µM [rising, single point] | 
CC1=CCC[C@@H]2[C@@](C)(CC/C(C)=C/C(=O)O)[C@H](C)CC[C@@]12C | 20.6 µM [rising, single point] | 
C=CCNc1nc(SC)nc2ccsc12 | 0.731 µM [rising, full curve, poor fit] | 
Cc1ccc(CSCCNC(=O)CSCc2ccc([N+](=O)[O-])cc2)cc1 | 8.2 µM [falling, partial curve, poor fit] | 
COc1cccc(C(=O)COc2cccc(NC(=O)c3cccc([N+](=O)[O-])c3)c2)c1 | 11.2 µM [falling, partial curve] | 

Taken from above.
Under AC50 [1], Cc1ccc(S(=O)(=O)N2CCN(Cc3cc(=O)n4ccccc4n3)CC2)c(C)c1 shows 3.66 µM [rising, partial curve, poor fit]
Under AC50 [1], CC1=CCC[C@@H]2[C@@](C)(CC/C(C)=C/C(=O)O)[C@H](C)CC[C@@]12C shows 20.6 µM [rising, single point]
Under AC50 [1], NNc1nc2c(Cl)ccc(Cl)c2s1 shows 5.17 µM [falling, partial curve]
